Results: patent USRE45610 (dated 2015)
Non-standard residues stand in square brackets, D forms with d. βAla = NCCC(=O)O

Test: general procedure: Fmoc solid-phase peptide synthesis; 2-chlorotrityl resin; DIPCDI/HOBt
Details: whole synthesis, MeCN (+0.07% TFA) in H2O (+0.1% TFA) gradient, ES-MS for molecular weight

Substance	crude HPLC purity
Ac-[βAla]HCH-OH	greater than 85%
Ac-[βAla]HSH-OH	greater than 90%
